Laboratory results as given in paper PMC12670164, “In vitro and clinical data demonstrate negligible risk of drug–drug interactions with opelconazole, a novel inhaled antifungal agent” (Journal of Antimicrobial Chemotherapy, 2025).

Test: Phase 1 study: plasma pharmacokinetics of inhaled opelconazole in healthy volunteers
Format: in vivo, human
Details: multiple inhaled doses, clinical dosing
Method: The study was conducted from February 2023 through June 2023 in accordance with the Declaration of Helsinki, Good Clinical Practice, and the International Conference on Harmonisation guidelines (South African National Clinical Trial Registry code: DOH-27-122022-5196). The study documents were approved by an Independent Ethics Committee. Study participants provided written informed consent prior to any study procedures.
Screening occurred within 28 days prior to the first dosing day (Figure 1). Participants were admitted to the study centre on Day −1 and were required to stay there until approximately 48 h after the morning dosing on Day 15. They returned for subsequent PK blood samples at approximately 72 (Day 18), 168 (Day 22) and 336 h (Day 29) after the last morning dosing. On Days 1 and 15, participants received oral midazolam 7.5 mg and oral caffeine 180 mg together after food ingestion.
Standard doses of midazolam and caffeine were used to characterize their PK profiles. […]
Primary PK parameters assessed for midazolam and its metabolites (1-OH-midazolam, 4-OH-midazolam), caffeine and opelconazole were Cmax and AUC, from time zero to t, where t is the time of the last quantifiable concentration (AUC(0−t); i.e., AUC(0−12) and AUC(0−24)). […]

## Cc1cc(N2CCN(c3ccc(C(=O)Nc4ccc(F)cc4)cc3)CC2)ccc1OC[C@@H]1CO[C@@](Cn2cncn2)(c2ccc(F)cc2F)C1 [opelconazole]
  systemic Cmax at steady state: 7 ng/mL and ≤ 6.830 ng/mL

For part of its entries the source gives two or more results. This is not the full list of results. There may be further records. Values given together differ for a reason that is not stated; dose, time, organism, isomer or construct need not be as stated for each record.
